Measured values taken from PMC10570026.
No constants are given. Whether binding was seen depends on the method and setting. In cells and extracts the contact can be indirect. A yes stands for co-enrichment or nearness to the bait. Other partners may have been found.

Biological target: T1, Xenopus laevis DONSON (Xenopus laevis (endogenous in egg extract)) (UniProt Q5U4U4)
T1 sequence: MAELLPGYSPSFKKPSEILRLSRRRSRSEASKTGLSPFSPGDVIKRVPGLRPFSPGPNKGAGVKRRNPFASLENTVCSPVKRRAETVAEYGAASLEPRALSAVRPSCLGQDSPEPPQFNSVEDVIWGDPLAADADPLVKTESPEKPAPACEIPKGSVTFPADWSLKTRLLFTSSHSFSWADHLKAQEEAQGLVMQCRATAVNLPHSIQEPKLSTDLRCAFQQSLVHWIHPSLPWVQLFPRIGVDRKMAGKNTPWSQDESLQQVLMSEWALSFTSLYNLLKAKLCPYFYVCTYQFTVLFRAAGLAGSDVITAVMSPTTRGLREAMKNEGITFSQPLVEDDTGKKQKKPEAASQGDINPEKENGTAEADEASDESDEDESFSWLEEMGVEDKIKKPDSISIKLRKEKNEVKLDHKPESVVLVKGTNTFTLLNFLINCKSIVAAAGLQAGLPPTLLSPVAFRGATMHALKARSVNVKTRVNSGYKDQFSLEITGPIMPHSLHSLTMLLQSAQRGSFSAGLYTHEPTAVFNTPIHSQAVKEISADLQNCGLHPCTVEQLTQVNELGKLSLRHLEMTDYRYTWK
Assay: affinity purification with mass spectrometry; large scale α-DONSON immunoprecipitation from chromatin of egg extract with p97 inhibitor NMS873 or aphidicolin + caffeine, 60 min; LC/MS/MS

RecQ4
binding: binds

TopBP1
binding: binds
